From PubChem BioAssay AID1347075 (National Center for Advancing Translational Sciences (NCATS), 2019)
Where “and” joins values, the source holds several entries; their conditions need not be identical. Identical values can stand only once. Out of some 400,000 compounds screened, about 5,500 (1.4%) were called active. The inconclusive results got no clear call from the source; some entries with a clear call stand among them for comparison. Calls come from the whole dose curve; as a rule, active = well fitted cell-killing curve with a large enough effect; inconclusive = small, poorly fitted or top-dose-only effect, or effect the other way; inactive = flat fitted curve, though single readings scatter. A potency beside an inconclusive call is a rough fit, not a confirmed value.

Assay: qHTS assay for MDR1-selective chemotherapeutics: Primary screen using the parental adenocarcinoma cell KB-3-1; note: nearly all actives have a fitted effect of over 60% in size
Details: KB-3-1 viability, CellTiter-Glo ATP luminescence, 72 h; activity change, negative = cytotoxic: at 46.1 µM (top of the series)
Summary of the method: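 Parental KB-3-1 adenocarcinoma cells in phenol-red-free DMEM with 10% FBS were pin-treated with compounds at several concentrations, incubated 72 h at 37 °C, and viability read by CellTiter-Glo luminescence; concentration-effect curves were fitted after normalization.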
% is set by controls: 0 for no effect and ±100 for the full control effect; potency is the fitted concentration of half-maximal effect.

Compound	activity change, negative = cytotoxic	Potency
O=C(NCC(=O)N1CCCCCC1)c1ccc(OC(F)F)cc1	inactive: -2.02%	
CCc1ccccc1N(CC(=O)NCc1ccco1)C(=O)c1snc(C(N)=O)c1N	inactive: -12%	
O=C1COc2ccc(S(=O)(=O)N3CCC(C(=O)NCc4ccccc4)CC3)cc2N1	inactive: -3.14%	
CCN(C(=O)COC(=O)c1nccnc1N)c1cccc2ccccc12	inactive: 3.1%	
O=C(NCC(=O)N1CCN(C/C=C/c2ccccc2)CC1)c1ccc(OC(F)F)cc1		inconclusive: 29.1 µM [cytotoxic, single point]
Cc1ccc(C(=O)CC(=O)c2ccccc2C)c(O)c1		inconclusive: 25.9 µM [cytotoxic, single point]
Cn1c(SCc2ccccc2)nnc1-c1ccc2nonc2c1		inconclusive: 18.4 µM [rising, single point]
COc1ccc2c(c1)Cc1sc(NC(=O)c3cccc(Cl)c3)nc1-2	inactive: 1.87%	
Cc1ccc(-c2csc(NC(=O)COC(=O)c3cccc(S(=O)(=O)N4CCOCC4)c3)n2)cc1		inconclusive: 18.4 µM [cytotoxic, partial curve, poor fit]
COc1ccc(S(=O)(=O)Nc2cc(SCC(=O)O)c(O)c3ccccc23)cc1		inconclusive: 23.1 µM [cytotoxic, single point]
C(#Cc1ccccc1)C[N+]1(CC#Cc2ccccc2)CCCCC1		active: 18.4 µM
O=C1CCS/C(=N\N=C\c2ccc(Cl)cc2Cl)N1		inconclusive: 25.9 µM [cytotoxic, partial curve]
COc1cc(C2C(C(=O)c3cccs3)=C(O)C(=O)N2Cc2ccco2)cc(OC)c1OC (centres undefined)		inconclusive: 29.1 µM [rising, single point]
O=C(N/N=C/c1cc([N+](=O)[O-])ccc1O)C(O)(c1ccccc1)c1ccccc1		inconclusive: 29.1 µM [cytotoxic, single point]
CCOC1=NS(=O)(=O)c2ccccc21	inactive: 4.44%	
CCCc1ccc(OCc2nc(-c3ccc(NC(=O)c4cccs4)cc3)no2)cc1		inconclusive: 29.1 µM [cytotoxic, single point]
Cc1cccc(C)c1NC(=O)c1c(O)c2ccccc2[nH]c1=O		active: 18.4 µM
COc1ccc(C2/C(=C(/O)c3ccc4c(c3)CC(C)O4)C(=O)C(=O)N2CCCn2ccnc2)cc1OC (centres undefined)	inactive: -0.647%	
COc1cccc(CNC(=O)c2ccc(Cl)c(S(=O)(=O)N3CCOCC3)c2)c1	inconclusive: -10.5%	
CCOC(=O)c1c(NC(=O)CN2C(=O)NC(C)(c3ccccc3)C2=O)sc(C)c1C (centres undefined)		active: 16.4 µM
O=C1/C(=C/c2cccnc2)Oc2cc(OS(=O)(=O)c3ccccc3)ccc21	inactive: 1.31%	
CCN(CC(=O)Nc1cccc(Br)c1)Cc1nc2ccccc2c(=O)[nH]1	inactive: -0.155%	

Compound	activity change, negative = cytotoxic	Potency
O=C(CSc1ccc(S(=O)(=O)N2CCOCC2)cn1)Nc1ccc(F)c(F)c1		inconclusive: 20.6 µM [cytotoxic, partial curve, poor fit]
CCCc1noc(-c2ccc(NCc3ccccc3OC)c([N+](=O)[O-])c2)n1	inactive: -23%	
CCOC(=O)C1CCCN(S(=O)(=O)c2cc(C(=O)OC)n(C)c2)C1 (centres undefined)		inconclusive: 20.6 µM [cytotoxic, single point]
O=C(N/N=C/c1c(F)cccc1Cl)c1cc(C2CC2)[nH]n1	inactive: -0.332%	
CNC(=O)c1ccc(NC(=O)c2cc(S(=O)(=O)N(C)C)ccc2N2CCCC2)cc1		inconclusive: 32.6 µM [cytotoxic, single point]
Cc1ccc(NC(=O)C(C)c2ccc(-c3ccccc3)c(F)c2)cc1 (centres undefined)		inconclusive: 23.1 µM [cytotoxic, single point]
O=C(c1cccc(S(=O)(=O)N2CCOCC2)c1)N1CCC(Cc2ccccc2)CC1		inconclusive: 29.1 µM [cytotoxic, single point]
Cc1nc2ccc(NC(=O)c3ccc(Cl)c(S(=O)(=O)N(C)c4ccccc4)c3)cc2s1		inconclusive: 9.2 µM [cytotoxic, partial curve, poor fit]
O=C1CCC(C(=O)OCC(=O)Nc2ccc(Cl)cc2C(F)(F)F)=NN1		inconclusive: 29.1 µM [cytotoxic, single point]
COc1ccc2c(Cl)c(C(=O)N/N=C3\CCCC(=O)C3)sc2c1		inconclusive: 29.1 µM [rising, single point]
Cc1c(NC(=O)c2nn3c(C(F)(F)F)cc(-c4ccccc4)nc3c2Br)c(=O)n(-c2ccccc2)n1C		inconclusive: 25.9 µM [rising, single point]
COc1ccc(C2COC(=O)C2=N)c(NC(=O)c2ccc(Cl)cc2)c1 (centres undefined)	inactive: 8.38%	
COc1ccc([C@H]2CC(=O)C=C(c3c(OC)cccc3OC)C2)cc1		inconclusive: 0.651 µM [cytotoxic, full curve, poor fit]
N#Cc1c(C(F)(F)F)cc(-c2ccc(Cl)cc2)[nH]c1=O	inactive: -15.3%	
COc1cc(-c2coc3c(C(=O)NCc4ccc(OC)c(OC)c4)cccc23)ccc1O		inconclusive: 3.66 µM [cytotoxic, full curve]
COc1ccc(C(CNC(=O)CNC(=O)c2cccc(C)c2)N2CCOCC2)cc1 (centres undefined)	inactive: 9.41%	
Cn1c(N)c(C#N)c(C#N)c1-c1ccccc1		inconclusive: 20.6 µM [cytotoxic, single point]
CCC(C)n1c(=N)c(C(=O)NC2CCCCC2)cc2c(=O)n3cc(C)ccc3nc21 (centres undefined)	inactive: 7.12%	
Cc1c(CC(=O)N2C[C@H]3C[C@@H](C2)c2cccc(=O)n2C3)c(=O)oc2cc3occ(C(C)(C)C)c3cc12		inconclusive: 3.26 µM [cytotoxic, partial curve, poor fit]
Cc1c(Cl)cccc1NC(=O)CCC(=O)N/N=C/c1ccc[nH]1		inconclusive: 29.1 µM [cytotoxic, single point]
O=c1c(O)c(-c2ccc3c(c2)OCO3)oc2ccccc12		inconclusive: 20.6 µM [cytotoxic, partial curve, poor fit]
COc1cc(C2C3=C(COC3=O)Oc3cc4c(cc32)OCO4)cc(OC)c1OC (centres undefined)		active: 9.2 nM and active: 580 nM
